Measured values taken from patent US6696546.
Results are given in words; binding and its absence hold for the method and conditions named. For part of these data: Binding seen in cells or lysates may run through a third protein. Some binding calls cover weakened binding; strength is not graded here. For part of these data: Where a sequence is shown, tags or fusion partners need not be part of it.

Protein sequences, listed by entry. Tags and fused reporters are not part of them. Lines headed by an entry give the natural chain unless they say otherwise; changes in a name come on top.
UniProt P14635: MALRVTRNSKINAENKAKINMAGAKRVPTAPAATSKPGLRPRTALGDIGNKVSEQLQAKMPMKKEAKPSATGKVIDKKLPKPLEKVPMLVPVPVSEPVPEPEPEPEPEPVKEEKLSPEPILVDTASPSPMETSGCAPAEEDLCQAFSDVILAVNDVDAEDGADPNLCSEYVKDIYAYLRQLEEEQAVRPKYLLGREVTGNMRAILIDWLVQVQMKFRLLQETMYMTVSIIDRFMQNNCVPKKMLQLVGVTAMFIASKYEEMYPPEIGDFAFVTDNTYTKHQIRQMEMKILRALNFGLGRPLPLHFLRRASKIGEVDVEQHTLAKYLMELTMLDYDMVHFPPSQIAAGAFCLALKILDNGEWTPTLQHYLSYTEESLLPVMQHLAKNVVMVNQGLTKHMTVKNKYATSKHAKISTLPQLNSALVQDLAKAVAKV
UniProt P06493: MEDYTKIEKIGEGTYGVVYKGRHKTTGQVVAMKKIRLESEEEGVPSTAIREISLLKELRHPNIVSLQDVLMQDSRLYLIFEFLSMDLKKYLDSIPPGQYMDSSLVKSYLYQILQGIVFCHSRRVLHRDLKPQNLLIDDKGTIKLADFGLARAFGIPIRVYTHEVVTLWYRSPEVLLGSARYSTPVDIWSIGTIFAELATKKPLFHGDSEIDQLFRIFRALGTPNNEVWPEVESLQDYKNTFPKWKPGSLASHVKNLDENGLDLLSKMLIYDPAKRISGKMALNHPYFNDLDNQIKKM

How the values were obtained:
[1] = target: T1, human cyclin B1/flu epitope-tagged p34cdc2 (human) (UniProt P14635+P06493); assay: modified far-western: PAP II (1 µg) on nitrocellulose, renatured, incubated with cyclin B1/p34cdc2 (100 ng), detected with anti-cyclin B1 antibody
[2] = target: T1, human cyclin B1/flu epitope-tagged p34cdc2 (human); assay: modified far-western
[3] = target: GST-Cyclin B1 fusion protein (UniProt P14635); assay: GST-cyclin B1 pull-down of in vitro translated 35S PAPs, autoradiography

B1: baculovirus-produced and purified histidine-tagged PAP II (enzyme, UniProt P25500 1-739, looked up, not shown: small tags and cut ends)
chain: MPFPVTTQGSQQTQPPQKHYGITSPISLAAPKETDCLLTQKLVETLKPFGVFEEEEELQRRILILGKLNNLVKEWIREISESKNLPQSVIENVGGKIFTFGSYRLGVHTKGADIDALCVAPRHVDRSDFFTSFYDKLKLQEEVKDLRAVEEAFVPVIKLCFDGIEIDILFARLALQTIPEDLDLRDDSLLKNLDIRCIRSLNGCRVTDEILHLVPNIDNFRLTLRAIKLWAKRHNIYSNILGFLGGVSWAMLVARTCQLYPNAIASTLVHKFFLVFSKWEWPNPVLLKQPEECNLNLPVWDPRVNPSDRYHLMPIITPAYPQQNSTYNVSVSTRMVMVEEFKQGLAITDEILLSKAEWSKLFEAPNFFQKYKHYIVLLASAPTEKQRLEWVGLVESKIRILVGSLEKNEFITLAHVNPQSFPAPKENPDKEEFRTMWVIGLVFKKTENSENLSVDLTYDIQSFTDTVYRQAINSKMFEVDMKIAAMHVKRKQLHQLLPSHVLQKKKKHSTEGVKLTPLNDSSLDLSMDSDNSMSVPSPTSAMKTSPLNSSGSSQGRNSPAPAVTAASVTNIQATEVSLPQINSSESSGGTSSESIPQTATQPAISSPPKPTVSRVVSSTRLVNPPPRPSGNAAAKIPNPIVGVKRTSSPHKEESPKKTKTEEDETSEDANCLALSGHDKTETKEQLDTETSTTQSETIQTATSLLASQKTSSTDLSDIPALPANPIPVIKNSIKLRLNR
**Q.** With B1 as the binder, how does the binding [1] read?
**A.** binds

**Q.** And the binding [2]?
**A.** binds

B2: C-terminal truncated PAP (1-434) (enzyme, bovine, UniProt P25500 1-434, looked up)
chain: MPFPVTTQGSQQTQPPQKHYGITSPISLAAPKETDCLLTQKLVETLKPFGVFEEEEELQRRILILGKLNNLVKEWIREISESKNLPQSVIENVGGKIFTFGSYRLGVHTKGADIDALCVAPRHVDRSDFFTSFYDKLKLQEEVKDLRAVEEAFVPVIKLCFDGIEIDILFARLALQTIPEDLDLRDDSLLKNLDIRCIRSLNGCRVTDEILHLVPNIDNFRLTLRAIKLWAKRHNIYSNILGFLGGVSWAMLVARTCQLYPNAIASTLVHKFFLVFSKWEWPNPVLLKQPEECNLNLPVWDPRVNPSDRYHLMPIITPAYPQQNSTYNVSVSTRMVMVEEFKQGLAITDEILLSKAEWSKLFEAPNFFQKYKHYIVLLASAPTEKQRLEWVGLVESKIRILVGSLEKNEFITLAHVNPQSFPAPKENPDKEEFR
modifications: 35S label (in vitro translated)
**Q.** With B2 as the binder, how does the binding [3] read?
**A.** binds
